Literature values, collected in patent publication US9029403B2, “Treatment of ovarian cancer with benzylidenebenzohydrazides” (Memorial Sloan-Kettering Cancer Center, priority 2011, dated 2015).
Some of these results come from one statement about several compounds together. At least one structure is not confirmed: it was looked up by name or label, or the drawing left a doubt.

System: Ovcar3-GTL-derived catenae
Conditions: catenae with glycocalyx; shown in WO2011/057034; cited from earlier work

**Q.** With C/C(=C\c1csc(C)n1)[C@@H]1C/C=C(/C(F)(F)F)C/C=C/[C@H](C)[C@H](O)[C@@H](C)C(=O)C(C)(C)[C@@H](O)CC(=O)O1 [fludelone] as the compound, how does the “resistance in catenae conferred by formation of glycocalyx” value read?
**A.** The value was “more than 8,000,000 fold”.
